In the supplement of paper PMC10849652:
Some of the results follow.

Chains of the proteins cited; added tags and fusions are not shown. Lines headed by an entry give the natural chain unless they say otherwise; changes in a name come on top.
UniProt Q9NSA3: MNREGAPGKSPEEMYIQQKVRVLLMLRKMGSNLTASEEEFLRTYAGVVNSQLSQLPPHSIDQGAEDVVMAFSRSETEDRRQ
UniProt Q9Y5B0: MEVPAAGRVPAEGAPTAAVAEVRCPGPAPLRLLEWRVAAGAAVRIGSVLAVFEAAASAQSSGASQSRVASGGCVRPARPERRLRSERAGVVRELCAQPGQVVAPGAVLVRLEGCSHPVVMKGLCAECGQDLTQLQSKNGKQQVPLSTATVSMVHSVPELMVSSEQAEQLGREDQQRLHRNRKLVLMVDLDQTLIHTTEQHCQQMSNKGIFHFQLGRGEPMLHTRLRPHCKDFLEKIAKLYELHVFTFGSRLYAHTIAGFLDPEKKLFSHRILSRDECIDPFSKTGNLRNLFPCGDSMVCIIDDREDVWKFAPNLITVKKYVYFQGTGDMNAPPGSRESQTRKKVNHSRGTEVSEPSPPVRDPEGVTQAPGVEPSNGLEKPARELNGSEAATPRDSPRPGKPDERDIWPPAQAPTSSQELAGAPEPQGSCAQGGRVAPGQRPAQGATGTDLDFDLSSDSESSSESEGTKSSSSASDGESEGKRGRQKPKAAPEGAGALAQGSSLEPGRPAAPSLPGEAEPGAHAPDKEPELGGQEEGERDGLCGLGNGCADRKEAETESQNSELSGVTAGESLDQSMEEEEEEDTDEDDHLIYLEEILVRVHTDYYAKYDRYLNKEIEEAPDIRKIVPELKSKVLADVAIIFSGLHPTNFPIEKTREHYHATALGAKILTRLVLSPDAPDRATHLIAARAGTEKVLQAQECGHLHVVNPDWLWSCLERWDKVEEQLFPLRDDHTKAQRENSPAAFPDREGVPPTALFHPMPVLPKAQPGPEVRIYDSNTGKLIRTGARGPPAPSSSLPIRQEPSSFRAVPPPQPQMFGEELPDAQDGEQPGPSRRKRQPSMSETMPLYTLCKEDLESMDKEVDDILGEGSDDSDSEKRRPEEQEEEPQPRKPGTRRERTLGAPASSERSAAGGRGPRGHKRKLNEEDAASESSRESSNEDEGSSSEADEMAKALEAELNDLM
UniProt O95196: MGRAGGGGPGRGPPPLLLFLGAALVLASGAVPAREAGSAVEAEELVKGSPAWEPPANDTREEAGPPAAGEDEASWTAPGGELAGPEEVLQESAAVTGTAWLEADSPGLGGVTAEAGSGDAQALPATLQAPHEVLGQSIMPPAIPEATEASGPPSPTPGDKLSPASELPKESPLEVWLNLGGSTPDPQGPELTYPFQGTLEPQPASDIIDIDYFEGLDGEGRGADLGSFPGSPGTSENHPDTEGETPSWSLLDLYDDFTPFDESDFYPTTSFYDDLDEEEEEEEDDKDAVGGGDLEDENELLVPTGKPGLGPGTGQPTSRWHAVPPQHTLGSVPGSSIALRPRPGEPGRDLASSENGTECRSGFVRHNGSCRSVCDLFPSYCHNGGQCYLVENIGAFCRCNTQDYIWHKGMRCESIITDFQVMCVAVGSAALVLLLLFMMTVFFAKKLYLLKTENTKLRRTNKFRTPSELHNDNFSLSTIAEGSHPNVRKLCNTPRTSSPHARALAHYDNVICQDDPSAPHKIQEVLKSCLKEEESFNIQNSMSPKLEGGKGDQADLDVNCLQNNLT
UniProt O95715: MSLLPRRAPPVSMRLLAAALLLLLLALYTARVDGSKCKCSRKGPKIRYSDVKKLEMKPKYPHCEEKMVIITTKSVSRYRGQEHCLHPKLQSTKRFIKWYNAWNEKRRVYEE
UniProt Q9UBX1: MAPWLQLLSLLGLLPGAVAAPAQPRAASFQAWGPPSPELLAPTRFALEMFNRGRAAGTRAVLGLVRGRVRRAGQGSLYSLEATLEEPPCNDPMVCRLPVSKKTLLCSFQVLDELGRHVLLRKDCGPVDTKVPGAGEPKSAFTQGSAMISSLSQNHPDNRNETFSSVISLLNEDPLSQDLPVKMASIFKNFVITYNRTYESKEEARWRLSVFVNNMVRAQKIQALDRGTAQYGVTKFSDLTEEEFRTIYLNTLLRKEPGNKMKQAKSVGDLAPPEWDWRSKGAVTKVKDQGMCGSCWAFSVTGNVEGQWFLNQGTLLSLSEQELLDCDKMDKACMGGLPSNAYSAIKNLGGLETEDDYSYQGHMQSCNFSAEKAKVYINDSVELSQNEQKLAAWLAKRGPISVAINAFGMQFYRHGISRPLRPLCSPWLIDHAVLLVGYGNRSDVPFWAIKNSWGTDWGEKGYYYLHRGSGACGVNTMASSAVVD
UniProt Q96PD2: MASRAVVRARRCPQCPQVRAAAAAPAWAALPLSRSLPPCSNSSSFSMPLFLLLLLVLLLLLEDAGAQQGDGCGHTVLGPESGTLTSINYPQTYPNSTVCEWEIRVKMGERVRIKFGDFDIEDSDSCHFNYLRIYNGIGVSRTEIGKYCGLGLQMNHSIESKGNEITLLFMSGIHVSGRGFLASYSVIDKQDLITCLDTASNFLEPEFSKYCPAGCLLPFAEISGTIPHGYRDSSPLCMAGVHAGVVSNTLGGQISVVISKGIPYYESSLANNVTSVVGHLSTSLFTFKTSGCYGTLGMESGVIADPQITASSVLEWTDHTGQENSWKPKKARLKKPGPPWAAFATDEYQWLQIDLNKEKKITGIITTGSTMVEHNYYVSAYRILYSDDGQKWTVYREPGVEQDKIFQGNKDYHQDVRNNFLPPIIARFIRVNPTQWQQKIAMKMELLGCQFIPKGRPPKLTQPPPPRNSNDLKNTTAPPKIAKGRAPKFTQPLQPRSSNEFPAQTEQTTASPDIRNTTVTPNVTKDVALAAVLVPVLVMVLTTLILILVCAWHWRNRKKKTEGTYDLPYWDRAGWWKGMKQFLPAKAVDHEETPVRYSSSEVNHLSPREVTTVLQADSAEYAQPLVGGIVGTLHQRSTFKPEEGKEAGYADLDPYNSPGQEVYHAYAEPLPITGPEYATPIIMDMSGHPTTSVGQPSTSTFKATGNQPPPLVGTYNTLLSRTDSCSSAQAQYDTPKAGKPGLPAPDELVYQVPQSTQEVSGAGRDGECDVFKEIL
UniProt Q2TBE0: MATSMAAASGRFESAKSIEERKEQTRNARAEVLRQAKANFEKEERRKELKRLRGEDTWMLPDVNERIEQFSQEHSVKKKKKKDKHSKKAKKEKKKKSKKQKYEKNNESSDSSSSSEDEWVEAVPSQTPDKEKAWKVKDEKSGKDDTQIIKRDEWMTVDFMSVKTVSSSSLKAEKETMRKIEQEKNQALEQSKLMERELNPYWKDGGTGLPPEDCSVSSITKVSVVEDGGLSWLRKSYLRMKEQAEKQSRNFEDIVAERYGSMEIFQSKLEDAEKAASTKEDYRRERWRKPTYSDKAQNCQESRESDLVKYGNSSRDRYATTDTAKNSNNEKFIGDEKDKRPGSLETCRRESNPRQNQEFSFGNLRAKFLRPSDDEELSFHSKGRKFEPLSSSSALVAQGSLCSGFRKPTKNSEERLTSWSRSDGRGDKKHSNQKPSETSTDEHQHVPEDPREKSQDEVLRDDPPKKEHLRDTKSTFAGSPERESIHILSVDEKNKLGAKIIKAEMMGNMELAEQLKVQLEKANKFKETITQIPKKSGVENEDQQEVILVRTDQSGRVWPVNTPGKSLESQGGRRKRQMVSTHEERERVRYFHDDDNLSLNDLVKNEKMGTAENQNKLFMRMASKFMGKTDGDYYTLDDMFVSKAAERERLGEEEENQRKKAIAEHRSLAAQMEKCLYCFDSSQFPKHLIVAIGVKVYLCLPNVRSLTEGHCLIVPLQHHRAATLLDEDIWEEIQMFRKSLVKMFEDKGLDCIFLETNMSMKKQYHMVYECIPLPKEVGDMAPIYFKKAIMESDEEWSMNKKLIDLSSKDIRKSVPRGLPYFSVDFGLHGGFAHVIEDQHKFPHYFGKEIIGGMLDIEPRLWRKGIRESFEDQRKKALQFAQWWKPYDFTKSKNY
UniProt O60931: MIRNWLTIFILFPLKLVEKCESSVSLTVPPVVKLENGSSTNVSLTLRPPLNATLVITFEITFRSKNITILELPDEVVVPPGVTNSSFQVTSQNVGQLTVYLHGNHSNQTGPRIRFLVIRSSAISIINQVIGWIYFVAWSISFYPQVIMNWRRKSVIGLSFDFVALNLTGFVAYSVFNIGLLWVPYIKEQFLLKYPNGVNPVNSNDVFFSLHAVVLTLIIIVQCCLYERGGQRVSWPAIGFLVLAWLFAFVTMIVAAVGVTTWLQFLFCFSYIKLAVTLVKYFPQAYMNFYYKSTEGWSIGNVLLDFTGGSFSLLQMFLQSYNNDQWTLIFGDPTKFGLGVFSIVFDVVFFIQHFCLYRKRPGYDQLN
UniProt Q16527: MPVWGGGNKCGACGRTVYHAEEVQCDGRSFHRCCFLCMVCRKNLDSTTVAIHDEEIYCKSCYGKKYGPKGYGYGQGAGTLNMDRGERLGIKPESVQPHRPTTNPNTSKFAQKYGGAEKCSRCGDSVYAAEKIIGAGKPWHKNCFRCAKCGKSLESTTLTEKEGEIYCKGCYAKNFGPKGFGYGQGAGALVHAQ
UniProt Q92564: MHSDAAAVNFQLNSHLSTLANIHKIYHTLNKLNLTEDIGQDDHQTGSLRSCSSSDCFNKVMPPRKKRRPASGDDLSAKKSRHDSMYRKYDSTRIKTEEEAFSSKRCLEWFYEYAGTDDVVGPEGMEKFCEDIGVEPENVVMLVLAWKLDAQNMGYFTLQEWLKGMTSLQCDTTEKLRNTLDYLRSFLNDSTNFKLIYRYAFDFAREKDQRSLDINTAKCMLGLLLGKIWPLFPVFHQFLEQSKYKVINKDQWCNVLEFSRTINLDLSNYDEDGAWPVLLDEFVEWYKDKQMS
UniProt Q96DE9: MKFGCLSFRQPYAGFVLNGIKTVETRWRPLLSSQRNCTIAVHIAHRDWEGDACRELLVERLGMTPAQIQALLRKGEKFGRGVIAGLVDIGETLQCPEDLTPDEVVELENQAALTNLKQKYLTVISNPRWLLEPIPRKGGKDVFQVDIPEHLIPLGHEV
UniProt Q9UIK4: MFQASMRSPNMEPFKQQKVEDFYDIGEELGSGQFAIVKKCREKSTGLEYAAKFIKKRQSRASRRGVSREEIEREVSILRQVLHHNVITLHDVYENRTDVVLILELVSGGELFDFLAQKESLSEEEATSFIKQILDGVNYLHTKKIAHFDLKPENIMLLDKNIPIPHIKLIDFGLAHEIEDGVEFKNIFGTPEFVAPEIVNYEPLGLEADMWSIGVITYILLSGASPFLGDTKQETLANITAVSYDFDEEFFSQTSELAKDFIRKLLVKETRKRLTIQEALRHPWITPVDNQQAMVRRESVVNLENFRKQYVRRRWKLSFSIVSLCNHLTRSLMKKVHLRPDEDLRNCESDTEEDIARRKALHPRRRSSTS
UniProt Q15828: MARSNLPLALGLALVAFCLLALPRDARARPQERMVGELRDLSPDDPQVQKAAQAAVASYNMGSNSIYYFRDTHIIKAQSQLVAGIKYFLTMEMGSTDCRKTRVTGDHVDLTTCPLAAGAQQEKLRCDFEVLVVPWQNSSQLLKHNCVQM
UniProt O43310: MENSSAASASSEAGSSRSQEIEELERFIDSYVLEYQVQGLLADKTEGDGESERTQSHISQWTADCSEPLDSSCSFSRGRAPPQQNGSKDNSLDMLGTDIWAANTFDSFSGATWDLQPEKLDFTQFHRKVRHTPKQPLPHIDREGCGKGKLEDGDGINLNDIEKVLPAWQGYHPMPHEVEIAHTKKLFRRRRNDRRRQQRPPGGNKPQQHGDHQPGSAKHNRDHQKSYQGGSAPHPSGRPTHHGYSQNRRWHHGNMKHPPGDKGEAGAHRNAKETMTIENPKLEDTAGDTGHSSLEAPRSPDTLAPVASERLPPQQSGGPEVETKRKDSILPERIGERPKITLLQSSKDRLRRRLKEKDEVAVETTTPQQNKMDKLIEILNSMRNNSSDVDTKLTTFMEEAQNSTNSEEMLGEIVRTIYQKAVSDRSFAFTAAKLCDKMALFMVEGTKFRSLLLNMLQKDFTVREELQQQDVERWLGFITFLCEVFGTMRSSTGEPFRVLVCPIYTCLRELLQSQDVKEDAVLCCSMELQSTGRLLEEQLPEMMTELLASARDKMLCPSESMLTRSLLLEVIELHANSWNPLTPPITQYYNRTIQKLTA

Key:
Assay in all cases: log2 fold change, soluble protein after heating vs DMSO (PISA); higher = thermal stabilisation; K562 cells, 10 uM, 30 min; active = over 0.2 and 3.5 SD of the protein, either way, in both replicates (recomputed)
[1] = compound: Cc1cccc(CC(=O)N2CCc3c2ccc(-c2cn(C)c4ncnc(N)c24)c3F)n1
How it was run: (§1)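 K562 cells (2×10^6 cells/mL) were treated with 10 μM compound for 30 min, and aliquots were heated for 3 min over 48°C-58°C. Pooled aliquots were extracted in PBS with 0.5% NP-40 at 4°C, and the supernatant after 21,000xg for 90 min was measured by TMTpro 16plex LC-MS/MS with channel sums equalised. Reported thermal stability, relative to control samples and from duplicates, is a log2 fold change.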

dasatinib = compound: Cc1nc(Nc2ncc(C(=O)Nc3c(C)cccc3Cl)s2)cc(N2CCN(CCO)CC2)n1 [dasatinib]
How it was run: as §1

[2] = compound: Cn1cc(-c2ccc3c(c2)CCN3C(=O)Cc2cccc(C(F)(F)F)c2)c2c(N)ncnc21
How it was run: as §1

mubritinib = compound: FC(F)(F)c1ccc(/C=C/c2nc(COc3ccc(CCCCn4ccnn4)cc3)co2)cc1 [mubritinib]
How it was run: as §1

[3] = compound: NC1(c2ccc(-c3nc4ccn5c(=O)[nH]nc5c4cc3-c3ccccc3)cc2)CCC1
How it was run: as §1

vorinostat = compound: O=C(CCCCCCC(=O)Nc1ccccc1)NO [vorinostat]
How it was run: as §1

silmitasertib = compound: O=C(O)c1ccc2c(c1)nc(Nc1cccc(Cl)c1)c1ccncc12 [silmitasertib]
How it was run: as §1

nilotinib = compound: Cc1cn(-c2cc(NC(=O)c3ccc(C)c(Nc4nccc(-c5cccnc5)n4)c3)cc(C(F)(F)F)c2)cn1 [nilotinib]
How it was run: as §1

[4] = compound: Cc1nc(Nc2n[nH]c3c2CN(C(=O)N[C@H](CN(C)C)c2ccccc2)C3(C)C)c2sccc2n1
How it was run: as §1

[5] = compound: Cc1ncc(-c2ccnc(Nc3ccc(S(C)(=O)=O)cc3)n2)n1C(C)C
How it was run: as §1

[6] = compound: Cn1cc(-c2ccc3nnc(C(F)(F)c4ccc5ncccc5c4)n3n2)cn1
How it was run: as §1

tipifarnib = compound: Cn1cncc1[C@@](N)(c1ccc(Cl)cc1)c1ccc2c(c1)c(-c1cccc(Cl)c1)cc(=O)n2C [tipifarnib]
How it was run: as §1

[7] = compound: O=C1NC(=O)C(c2cnc3ccccn23)=C1c1cn2c3c(cc(F)cc13)CN(C(=O)N1CCCCC1)CC2
How it was run: as §1

[8] = compound: NC(=O)Nc1cc(-c2cccc(F)c2)sc1C(=O)N[C@H]1CCCNC1
How it was run: as §1

entinostat = compound: Nc1ccccc1NC(=O)c1ccc(CNC(=O)OCc2cccnc2)cc1 [entinostat]
How it was run: as §1

citarinostat = compound: O=C(CCCCCCNC(=O)c1cnc(N(c2ccccc2)c2ccccc2Cl)nc1)NO [citarinostat]
How it was run: as §1

[9] = compound: c1cc(OCCN2CCCCC2)cc(-c2n[nH]c3ccc(-c4nnc[nH]4)cc23)c1
How it was run: as §1

bafetinib = compound: Cc1ccc(NC(=O)c2ccc(CN3CC[C@H](N(C)C)C3)c(C(F)(F)F)c2)cc1Nc1nccc(-c2cncnc2)n1 [bafetinib]
How it was run: as §1

[10] = compound: NC(=O)c1cnc(N[C@@H]2CCCC[C@@H]2N)nc1Nc1cccc(-n2nccn2)c1
How it was run: as §1

[11] = compound: NCC(=O)Nc1ccc(-n2nc(C(F)(F)F)cc2-c2ccc3c(ccc4ccccc43)c2)cc1
How it was run: as §1

Measured: log2 fold change

CTNNBIP1 (UniProt Q9NSA3)
inactive: [1] -0.045 | dasatinib 0.067 | [2] -0.002 | mubritinib 0.055 | [3] 0.077 | vorinostat -0.187 | silmitasertib -0.069

CUL7 isoform 2 (UniProt Q14999)
inactive: [1] -0.238 | nilotinib -0.305 | [4] 0.079 | dasatinib -0.488 | [5] 0.12 | [6] -0.03 | tipifarnib 0.041 | vorinostat 0.181 | [7] 0.15

CTDP1 (UniProt Q9Y5B0)
inactive: nilotinib 0.008 | [4] 0.06 | dasatinib -0.003 | [5] -0.058 | [2] -0.145 | tipifarnib 0.057 | mubritinib 0.07 | [8] -0.072 | [3] -0.084 | entinostat 0.049 | silmitasertib 0.014 | [7] 0.088

CSPG5 (UniProt O95196)
inactive: tipifarnib -0.004 | [8] -0.057 | entinostat 0.067 | citarinostat -0.081 | [7] -0.16 | [9] -0.03

CXCL14 (UniProt O95715)
inactive: bafetinib -0.145 | nilotinib -0.128 | [4] -0.104 | [5] 0.042 | mubritinib -0.098 | [8] -0.127 | [3] -0.325 | entinostat 0.058 | silmitasertib -0.036

CYTH1 (UniProt Q15438)
inactive: dasatinib 0.124 | tipifarnib 0.067 | mubritinib 0.101 | [10] -0.122 | [3] -0.122 | [11] -0.092 | citarinostat 0.083 | silmitasertib -0.037 | [7] -0.076 | [9] -0.245

CTSF (UniProt Q9UBX1)
inactive: [1] -0.17 | vorinostat 0.053 | [7] 0.1

CYREN (UniProt Q9BWK5)
inactive: [1] -0.016 | nilotinib -0.102 | [4] 0.029 | [5] 0.045 | [6] -0.145 | mubritinib 0.16 | [3] -0.098 | [11] 0.068 | vorinostat -0.018 | citarinostat 0.009 | silmitasertib -0.063 | [9] 0.175

CTDSPL2 (UniProt Q05D32)
inactive: [1] -0.077 | nilotinib -0.014 | [4] -0.098 | dasatinib 0.072 | [5] 0.002 | [2] 0.297 | [10] 0.384 | vorinostat 0.039 | [7] 0.201

DAPK1 isoform 3 (UniProt P53355)
inactive: bafetinib -0.254 | [6] 0.136 | tipifarnib 0.031 | mubritinib -0.002 | [8] -0.052 | [3] -0.19 | entinostat 0.07 | silmitasertib 0.064 | [7] 0.259

DCBLD2 isoform 2 (UniProt Q96PD2)
inactive: dasatinib -0.084 | [10] 0.226

CXXC5 (UniProt Q7LFL8)
inactive: dasatinib 0.097 | [6] -0.155 | [7] 0.022

CWF19L2 (UniProt Q2TBE0)
inactive: [1] -0.285 | dasatinib 0.118 | [2] -0.102 | [6] 0.001 | tipifarnib 0.083 | [8] 0.129 | [10] 0.013 | entinostat -0.134 | vorinostat -0.184 | citarinostat 0.13 | [9] -0.001

CTNS isoform 2 (UniProt O60931)
inactive: [2] 0.052 | mubritinib -0.133 | [8] 0.044 | [3] -0.05 | [11] 0.022 | entinostat 0.012 | citarinostat 0.077 | silmitasertib 0.202 | [9] -0.032

CTPS1 isoform 2 (UniProt P17812)
inactive: [8] -0.426 | [10] 0.147 | entinostat 0.034

CSRP2 (UniProt Q16527)
inactive: [2] -0.083 | [6] -0.171 | [8] -0.025 | [10] 0.045 | [11] 0.11 | entinostat -0.027

CTR9 (UniProt Q6PD62)
inactive: [1] -0.104 | dasatinib 0.104 | [6] -0.055 | tipifarnib 0 | [8] 0.171 | entinostat 0.025 | vorinostat 0.053 | citarinostat -0.061 | [7] 0.037 | [9] -0.093

DCBLD1 (UniProt Q8N8Z6)
inactive: dasatinib 0.106 | [2] 0.163 | tipifarnib 0.21 | [7] -0.015

DCUN1D4 isoform 3 (UniProt Q92564)
inactive: dasatinib 0.035 | [2] 0.048 | mubritinib -0.015 | [8] -0.054 | [10] -0.064 | [3] -0.003 | [11] -0.207 | entinostat 0.085 | citarinostat 0.095 | silmitasertib -0.137 | [7] -0.182 | [9] 0.075

CXorf40B (UniProt Q96DE9)
inactive: [1] -0.011 | dasatinib -0.16 | [2] -0.023 | [6] 0.11 | [10] -0.06 | vorinostat 0.13 | [7] -0.061

DAPK2 isoform 2 (UniProt Q9UIK4)
inactive: mubritinib -0.23 | [8] 0.002 | [3] -0.028 | entinostat 0.118 | silmitasertib -0.054

CWC22 (UniProt Q9HCG8)
inactive: tipifarnib -0.157

CST6 (UniProt Q15828)
inactive: nilotinib -0.119 | [4] 0.219 | [5] 0.295 | mubritinib -0.118 | [8] 0.113 | [3] 0.176 | entinostat 0.227 | citarinostat -0.272 | silmitasertib 0.256 | [7] -0.16 | [9] 0.269

CTNNBL1 (UniProt Q8WYA6)
inactive: bafetinib -0.12 | tipifarnib 0.022 | [11] 0.175 | citarinostat 0.057 | [9] -0.068

DBNDD1 isoform 3 (UniProt Q9H9R9)
inactive: [8] -0.095 | entinostat -0.179 | [7] -0.024

DCAF17 (UniProt Q5H9S7)
inactive: [11] 0.031 | citarinostat -0.037 | [7] -0.153 | [9] -0.038

CTDNEP1 (UniProt O95476)
inactive: [1] -0.005 | dasatinib -0.171 | [2] -0.145 | [8] -0.076 | [10] 0.178 | [11] 0.022 | entinostat 0 | vorinostat 0.034

DCP2 (UniProt Q8IU60)
inactive: dasatinib 0.02 | [2] -0.021 | [6] -0.033 | tipifarnib -0.112 | [8] -0.076 | [10] 0.009 | [11] -0.079 | entinostat 0.048 | [7] 0.048

CTDSP1 (UniProt Q9GZU7)
inactive: [1] 0.058 | nilotinib 0.14 | [4] -0.084 | [5] 0.026 | [6] 0.142 | [11] -0.055 | vorinostat -0.098

CTIF (UniProt O43310)
inactive: [2] 0.063 | [6] 0.161 | [8] -0.257 | [11] 0.087 | entinostat -0.075 | [7] -0.227

DCAF4 (UniProt Q8WV16)
active: [1] -0.423
inactive: nilotinib -0.204 | [4] -0.007 | dasatinib 0.11 | [5] -0.093 | [6] 0.079 | mubritinib 0.094 | [8] -0.046 | [3] -0.127 | entinostat 0.005 | vorinostat 0.238 | citarinostat -0.1 | silmitasertib 0.066 | [7] -0.096 | [9] -0.094

DAAM1 (UniProt Q9Y4D1)
inactive: dasatinib 0.03 | [2] -0.276

DCAF12 (UniProt Q5T6F0)
inactive: [1] 0.124 | mubritinib 0.087 | [8] -0.025 | [3] -0.201 | entinostat -0.003 | vorinostat -0.021 | citarinostat -0.033 | silmitasertib 0.051 | [9] 0.055

8 neighbouring records out of the list so far, quoted:
DCAF17 (UniProt Q5H9S7)
inactive: [11] 0.031 | citarinostat -0.037 | [7] -0.153 | [9] -0.038

CTDNEP1 (UniProt O95476)
inactive: [1] -0.005 | dasatinib -0.171 | [2] -0.145 | [8] -0.076 | [10] 0.178 | [11] 0.022 | entinostat 0 | vorinostat 0.034

DCP2 (UniProt Q8IU60)
inactive: dasatinib 0.02 | [2] -0.021 | [6] -0.033 | tipifarnib -0.112 | [8] -0.076 | [10] 0.009 | [11] -0.079 | entinostat 0.048 | [7] 0.048

CTDSP1 (UniProt Q9GZU7)
inactive: [1] 0.058 | nilotinib 0.14 | [4] -0.084 | [5] 0.026 | [6] 0.142 | [11] -0.055 | vorinostat -0.098

CTIF (UniProt O43310)
inactive: [2] 0.063 | [6] 0.161 | [8] -0.257 | [11] 0.087 | entinostat -0.075 | [7] -0.227

DCAF4 (UniProt Q8WV16)
active: [1] -0.423
inactive: nilotinib -0.204 | [4] -0.007 | dasatinib 0.11 | [5] -0.093 | [6] 0.079 | mubritinib 0.094 | [8] -0.046 | [3] -0.127 | entinostat 0.005 | vorinostat 0.238 | citarinostat -0.1 | silmitasertib 0.066 | [7] -0.096 | [9] -0.094

DAAM1 (UniProt Q9Y4D1)
inactive: dasatinib 0.03 | [2] -0.276

DCAF12 (UniProt Q5T6F0)
inactive: [1] 0.124 | mubritinib 0.087 | [8] -0.025 | [3] -0.201 | entinostat -0.003 | vorinostat -0.021 | citarinostat -0.033 | silmitasertib 0.051 | [9] 0.055

(list continues)

CXXC1 isoform 2 (UniProt Q9P0U4)
inactive: [1] -0.024 | dasatinib 0.131 | [2] -0.004 | tipifarnib -0.058 | [8] 0.003 | [10] -0.016 | [11] -0.026 | entinostat -0.095 | vorinostat -0.032

CYBRD1 (UniProt Q53TN4)
inactive: [1] -0.11 | dasatinib 0.022 | [2] -0.073 | [6] -0.597 | tipifarnib 0.18 | mubritinib 0.091 | [10] -0.151 | [3] -0.092 | [11] 0.079 | vorinostat -0.099 | citarinostat -0.034 | silmitasertib 0.086 | [9] -0.161
